Results as given in PMC10593786.
No constants are given. Whether binding was seen depends on the method and setting. Some binding calls cover weakened binding; strength is not graded here. Tags and fused reporters may be left off the sequences shown.

Sequences of proteins named here, by UniProt entry; tags and fusion partners are left off. Residues count along the entry.
UniProt Q64331, residues 1032-1262: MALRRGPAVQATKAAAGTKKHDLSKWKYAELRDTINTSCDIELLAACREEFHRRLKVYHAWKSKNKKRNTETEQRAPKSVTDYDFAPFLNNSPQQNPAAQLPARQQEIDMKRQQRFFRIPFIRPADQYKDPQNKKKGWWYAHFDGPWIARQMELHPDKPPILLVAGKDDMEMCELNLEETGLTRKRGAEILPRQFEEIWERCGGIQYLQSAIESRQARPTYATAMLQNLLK

Target: Myo6 ^YFPCBD (WT) (mouse) (UniProt Q64331)
Experiment: MST; ^YFPCBD kept at 100 nM, Myo6 partner titrated (16 two-fold dilutions), 25 °C, 20 mM Bis-Tris pH 6.5, 100 mM KCl, 1 mM DTT, 0.05% Tween-20; both purified

binding: binds
B1: Dab2 His-650-end (tDab2) (domain or fragment, UniProt P98082 650-770)
chain: DVKEMFKDFQLRQPPAVPARKGEQTSSGTLSAFASYFNSKVGIPQENADHDDFDANQLLNKINEPPKPAPRQVSLPVTKSTDNAFENPFFKDSFGSSQASVASSQPVSSEMYRDPFGNPFA
